In test [1] the target is Flag-tagged wild-type uPAR (human) (UniProt Q03405). As to the kind of experiment: co-IP; mRuby3-fused uPAR mutants co-expressed with Flag-tagged wild-type uPAR in 293T cells; anti-Flag beads; blot with anti-uPAR.
In test [2] the target is uPAR^E49P fused with mRuby3 (human) (UniProt Q03405). The test can be described thus: cross-linking; 293T cells stably expressing mRuby3-fused uPAR treated with 0.5 mM membrane-impermeable BS3 in PBS, 30 min, 4 °C; lysed; anti-uPAR immunoblot. Background: Immunoblotting shows a protein as a band on a membrane.
Test [3] addresses uPAR^H47C/N259C fused with mRuby3 (human) (UniProt Q03405). The description is as above.
Test [4] has as its target uPAR^T51C/V70C fused with mRuby3 (human) (UniProt Q03405). Described as above.

By UniProt entry, the sequences of proteins in these tests, tags left out. Where a name states a change or a piece, a line headed by the entry shows the natural chain unless it says otherwise. Chains listed by the source or under a name are the forms on record and can include a tag or linker. Residues count along the entry.
Flag-tagged wild-type uPAR (Q03405, residues 23-305): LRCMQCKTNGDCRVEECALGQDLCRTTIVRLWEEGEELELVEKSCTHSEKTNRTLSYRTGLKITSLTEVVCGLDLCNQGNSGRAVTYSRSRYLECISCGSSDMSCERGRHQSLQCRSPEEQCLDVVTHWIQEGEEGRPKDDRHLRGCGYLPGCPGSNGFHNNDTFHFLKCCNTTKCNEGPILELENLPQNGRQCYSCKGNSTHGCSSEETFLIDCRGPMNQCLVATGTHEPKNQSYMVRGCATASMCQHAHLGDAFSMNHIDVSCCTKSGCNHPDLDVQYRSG
uPAR^E49P fused with mRuby3 (Q03405, form named): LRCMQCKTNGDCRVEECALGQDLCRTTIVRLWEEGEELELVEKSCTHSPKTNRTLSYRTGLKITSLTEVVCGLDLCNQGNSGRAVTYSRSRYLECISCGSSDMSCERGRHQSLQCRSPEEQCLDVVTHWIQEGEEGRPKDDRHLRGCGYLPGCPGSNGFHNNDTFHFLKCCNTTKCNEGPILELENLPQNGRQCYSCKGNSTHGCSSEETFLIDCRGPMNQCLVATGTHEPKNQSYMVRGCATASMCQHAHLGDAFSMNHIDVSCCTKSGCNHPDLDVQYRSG
uPAR^H47C/N259C fused with mRuby3 (Q03405, form named): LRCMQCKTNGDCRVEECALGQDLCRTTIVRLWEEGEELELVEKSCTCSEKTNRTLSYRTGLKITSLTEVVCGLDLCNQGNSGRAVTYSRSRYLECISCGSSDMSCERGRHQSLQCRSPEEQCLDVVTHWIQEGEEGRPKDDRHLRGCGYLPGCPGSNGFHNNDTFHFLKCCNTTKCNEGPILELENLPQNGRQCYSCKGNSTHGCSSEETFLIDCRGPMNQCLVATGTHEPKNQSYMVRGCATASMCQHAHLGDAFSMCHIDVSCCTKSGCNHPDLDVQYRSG
uPAR^T51C/V70C fused with mRuby3 (Q03405, form named): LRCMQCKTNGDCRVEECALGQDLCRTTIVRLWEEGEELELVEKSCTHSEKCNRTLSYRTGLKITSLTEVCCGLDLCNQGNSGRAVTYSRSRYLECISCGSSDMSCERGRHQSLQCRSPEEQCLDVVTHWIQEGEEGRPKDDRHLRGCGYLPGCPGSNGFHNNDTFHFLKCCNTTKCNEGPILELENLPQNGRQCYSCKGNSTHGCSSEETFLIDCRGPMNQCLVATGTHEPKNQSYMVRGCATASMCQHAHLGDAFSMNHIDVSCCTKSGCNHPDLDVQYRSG

This note sets out measurements from article PMC8964761.

Results are given in words; binding and its absence hold for the method and conditions named. In cells and extracts the contact can be indirect. Some binding calls cover weakened binding; strength is not graded here.

Take “uPAR^E49P fused with mRuby3 (from UniProt Q03405 23-305) (receptor)”: the binding entry in test [1] and in test [2] was “binds” in each case.

For the substance “uPAR^H47C/N259C fused with mRuby3 (from UniProt Q03405 23-305) (receptor)”, in test [3], the binding result is listed as “no binding”.

With “uPAR^T51C/V70C fused with mRuby3 (from UniProt Q03405 23-305) (receptor)”, the binding entry in test [4] is recorded as “binds weakly”.
